Experimental data published in US20190323037, “REPLICATIVE TRANSPOSON SYSTEM” (HORIZON DISCOVERY LIMITED, published 2019).

Experiments:
Assay in all cases: enzyme reaction in vitro
[1] = system: T1, Helraiser transposase (RepHel, Helitron) (Myotis lucifugus); details: purified recombinant protein, protein details: His tag (pFastBac HT-A), TEV-cleaved, insect cells, label: 6-FAM, single-stranded DNA
T1 sequence: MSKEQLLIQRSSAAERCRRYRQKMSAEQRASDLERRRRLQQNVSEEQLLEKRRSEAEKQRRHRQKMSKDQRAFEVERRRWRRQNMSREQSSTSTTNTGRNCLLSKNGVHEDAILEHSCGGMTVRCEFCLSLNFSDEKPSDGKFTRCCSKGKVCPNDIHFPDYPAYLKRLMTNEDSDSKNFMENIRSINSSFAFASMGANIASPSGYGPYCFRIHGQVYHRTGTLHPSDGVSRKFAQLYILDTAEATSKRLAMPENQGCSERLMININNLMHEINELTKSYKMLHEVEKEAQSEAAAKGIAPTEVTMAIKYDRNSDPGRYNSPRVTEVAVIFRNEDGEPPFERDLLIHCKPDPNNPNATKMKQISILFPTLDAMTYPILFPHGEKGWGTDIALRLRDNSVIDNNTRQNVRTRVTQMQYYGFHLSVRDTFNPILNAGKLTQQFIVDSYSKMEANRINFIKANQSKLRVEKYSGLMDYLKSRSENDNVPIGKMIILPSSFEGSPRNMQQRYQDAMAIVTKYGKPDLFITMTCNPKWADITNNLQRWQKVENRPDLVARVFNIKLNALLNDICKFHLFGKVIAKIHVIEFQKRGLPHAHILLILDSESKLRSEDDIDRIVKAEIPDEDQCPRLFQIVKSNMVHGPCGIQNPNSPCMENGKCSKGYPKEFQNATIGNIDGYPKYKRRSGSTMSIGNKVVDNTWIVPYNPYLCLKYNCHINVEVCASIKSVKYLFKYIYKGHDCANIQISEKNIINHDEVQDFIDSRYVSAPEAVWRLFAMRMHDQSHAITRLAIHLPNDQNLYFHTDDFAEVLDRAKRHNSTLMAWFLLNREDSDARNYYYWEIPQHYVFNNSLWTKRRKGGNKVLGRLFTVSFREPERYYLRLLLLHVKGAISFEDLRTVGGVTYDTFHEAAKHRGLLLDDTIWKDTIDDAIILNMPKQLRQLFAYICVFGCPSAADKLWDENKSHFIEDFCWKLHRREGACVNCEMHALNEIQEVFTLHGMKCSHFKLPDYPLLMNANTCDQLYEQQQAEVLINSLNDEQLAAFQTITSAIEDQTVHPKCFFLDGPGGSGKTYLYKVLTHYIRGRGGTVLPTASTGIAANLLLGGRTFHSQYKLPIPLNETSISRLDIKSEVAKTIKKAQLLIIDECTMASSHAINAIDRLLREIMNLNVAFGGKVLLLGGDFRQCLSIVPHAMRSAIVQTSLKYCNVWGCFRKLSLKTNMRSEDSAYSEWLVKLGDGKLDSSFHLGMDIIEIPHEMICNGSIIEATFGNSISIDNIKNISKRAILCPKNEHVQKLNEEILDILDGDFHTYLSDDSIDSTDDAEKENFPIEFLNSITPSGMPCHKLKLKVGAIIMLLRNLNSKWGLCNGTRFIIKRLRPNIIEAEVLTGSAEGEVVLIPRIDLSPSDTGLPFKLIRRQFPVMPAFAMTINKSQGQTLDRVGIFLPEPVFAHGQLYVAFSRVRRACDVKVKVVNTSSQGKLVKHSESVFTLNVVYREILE

[2] = system: T2, Helraiser nuclease domain (printed HelR400-745) (Myotis lucifugus); details: no cleavage; purified recombinant protein; protein details: His tag, TEV-cleaved; label: 6-FAM; single-stranded DNA
T2 sequence: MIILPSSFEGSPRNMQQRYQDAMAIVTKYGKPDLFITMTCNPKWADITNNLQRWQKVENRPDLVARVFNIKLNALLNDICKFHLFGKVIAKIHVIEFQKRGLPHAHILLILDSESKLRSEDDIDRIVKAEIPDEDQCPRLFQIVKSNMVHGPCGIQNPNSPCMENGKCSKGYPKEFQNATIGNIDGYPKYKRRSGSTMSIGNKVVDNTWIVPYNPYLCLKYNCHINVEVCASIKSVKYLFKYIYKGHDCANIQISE

[3] = system: T3, Helraiser transposase K1068Q (Myotis lucifugus); details: cleavage unaffected; purified recombinant protein; protein details: His tag, TEV-cleaved; label: 6-FAM; single-stranded DNA
T3 sequence: T1 sequence with K1068Q

[4] = system: T4, Helraiser transposase Y727F (Myotis lucifugus); details: cleavage as wild type; purified recombinant protein; protein details: His tag, TEV-cleaved; label: 6-FAM; single-stranded DNA
T4 sequence: T1 sequence with Y727F

[5] = system: T5, Helraiser nuclease-helicase HelR490-1486 (Myotis lucifugus); details: no cleavage; purified recombinant protein; protein details: His tag, TEV-cleaved; label: 6-FAM; single-stranded DNA
T5 sequence: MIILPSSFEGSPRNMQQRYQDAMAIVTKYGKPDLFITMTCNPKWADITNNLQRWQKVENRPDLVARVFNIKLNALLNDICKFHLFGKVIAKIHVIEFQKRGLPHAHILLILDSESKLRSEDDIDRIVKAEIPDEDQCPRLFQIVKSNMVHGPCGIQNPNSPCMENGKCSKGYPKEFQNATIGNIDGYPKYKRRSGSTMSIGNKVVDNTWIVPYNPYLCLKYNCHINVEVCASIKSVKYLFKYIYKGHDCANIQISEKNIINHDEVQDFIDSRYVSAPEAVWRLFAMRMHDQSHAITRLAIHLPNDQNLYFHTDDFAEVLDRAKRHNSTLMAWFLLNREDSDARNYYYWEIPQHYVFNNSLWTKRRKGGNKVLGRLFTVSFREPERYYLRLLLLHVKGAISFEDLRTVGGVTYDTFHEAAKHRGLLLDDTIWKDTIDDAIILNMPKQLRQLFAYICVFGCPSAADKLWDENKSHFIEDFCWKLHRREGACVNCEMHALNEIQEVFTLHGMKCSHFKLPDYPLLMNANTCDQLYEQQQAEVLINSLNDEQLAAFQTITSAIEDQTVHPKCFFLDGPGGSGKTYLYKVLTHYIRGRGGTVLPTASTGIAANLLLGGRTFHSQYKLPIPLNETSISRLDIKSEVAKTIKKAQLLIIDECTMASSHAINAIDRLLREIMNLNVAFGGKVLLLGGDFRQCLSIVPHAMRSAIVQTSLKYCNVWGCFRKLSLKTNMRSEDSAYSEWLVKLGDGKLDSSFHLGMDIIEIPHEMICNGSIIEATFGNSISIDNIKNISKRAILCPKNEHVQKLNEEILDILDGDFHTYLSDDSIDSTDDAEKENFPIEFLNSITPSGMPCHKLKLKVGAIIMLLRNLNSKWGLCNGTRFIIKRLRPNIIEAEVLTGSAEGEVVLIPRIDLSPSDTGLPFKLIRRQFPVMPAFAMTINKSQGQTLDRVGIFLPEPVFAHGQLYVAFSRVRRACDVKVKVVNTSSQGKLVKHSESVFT

| Sequence | activity on this sequence ([1]; cleaved precisely at transposon end) | activity on this sequence [2] | activity on this sequence [3] | activity on this sequence [4] | activity on this sequence [5] | activity on this sequence ([1]; cleaved, Mn2+ more efficient than Mg2+, none without metal, dsDNA not cleaved) |
| --- | --- | --- | --- | --- | --- | --- |
| CCCTTTCAATGTGCACGAATTTCGTGCACCGGGCCACTAGTATATATATA [Helraiser RTS substrate (+), top strand] | active | – | – | – | – | – |
| CACCATATGATCCTATATAATAAAAGAGAAACATGCAAATTGACCATCCC [Helraiser LTS substrate (+), top strand] | – | not active | active | active | not active | active |

Positions count from the first letter of the chain named. For part of these data: No signal at the amounts used counts as a negative. Protein sequences can lack the tags named with them.
